At least one structure is not confirmed: it was looked up by name or label, or the drawing left a doubt. Residues, ends and D or L forms follow the SMILES beside them.
Tested on: chick chorioallantoic membrane (CAM)
Test: Chick chorioallantoic membrane (CAM) angiogenesis assay
Format: in vivo
Settings: pro-angiogenic factor alone
Method: Examples of the CAM assay methodology may include the step of providing chick embryos. In some embodiments, the chick embryos may be approximately 10 days old. The chick embryos may be incubated at approximately 37° C. with approximately 55% relative humidity. A hypodermic needle may be used to make a small hole in the shell concealing an air sac, and a second hole may be made on the broad side of the egg, directly over an avascular portion of the embryonic membrane. A false air sac may be created beneath the second hole by the application of negative pressure at the first hole, causing the CAM to separate from the shell. A window, approximately 1.0 cm^2, in size may be cut in the shell over the CAM with a small-crafts grinding wheel, allowing direct access to the underlying CAM. In some embodiments, a pro-angiogenic agent may be provided to induce new blood vessel branches on the CAM of 10-day-old embryos. In the exemplary embodiment, the pro-angiogenic agents may be the endogenous non-peptide pro-angiogenic hormones supplied in the patient's blood sample. […] Digital images of CAM sections exposed to filters may be collected and quantified using a 3-charge-coupled device color video camera system and analyzed with Image-Pro software (Media Cybernetics) or equivalent software. […]

In the case of `NC(N)=NCCC[C@H](NC(=O)[C@H](Cc1ccccc1)NC(=O)[C@@H]1CCCN1C(=O)[C@H](CO)NC(=O)[C@H](Cc1ccccc1)NC(=O)CNC(=O)[C@@H]1CCCN1C(=O)[C@@H]1CCCN1C(=O)[C@@H](N)CCCN=C(N)N)C(=O)O` [Bradykinin] (H-RPPGFSPFR-OH), the “Branch points ± SEM” value is reported as 106.7 ± 4.8.

From US10060934B2, “Methods for screening patients for resistance to angioinhibition, treatment and prophylaxis thereof” (NANOPHARMACEUTICALS LLC, priority 2013, dated 2018)
